{"source": "patent US10426785B2", "about": "“C-19 steroids for inhibiting neovascularization” (priority 2014, dated 2019)", "system": "HUVEC cells", "experiment": "WST-1 proliferation assay of HUVEC cells", "format": "cell-based, human", "conditions": "0.2, 0.4 and 1.0 μM, comparator to 4-hydroxytestosterone, FIG. 1A", "note": "At least one structure is not confirmed: it was looked up by name or label, or the drawing left a doubt."}
{"smiles": "CN1CCN(c2ccc3nc(-c4c(N)c5c(F)cccc5[nH]c4=O)[nH]c3c2)CC1", "note": "[TKI258, Dovitinib, reference compound]", "values": [{"measurement": "growth inhibition (WST-1 cell viability vs untreated controls)", "result": "comparable"}]}
